Test results as given in the supplement of paper PMC4683952.
The list shows a part of the results. How the calls were made is not given here. Repeats in this data set agree poorly, so a single value says little.

These compounds were tested on Lgr5 (MarsCy1-Lgr5-EGFP, U2OS) (assay: cell-surface Lgr5 expression (SCi1 fluorescence, background-subtracted) relative to WT DMSO (fold of DMSO control); higher = more Lgr5 at the plasma membrane). Settings: U2OS MarsCy1-Lgr5-EGFP stable; treatment time: overnight; library: Kinase Gold; 20 µM.
Description: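 U2OS cells stably expressing MarsCy1-Lgr5-EGFP in 384-well plates were incubated overnight with single-dose compounds. Cell-surface Lgr5 was stained with SCi1 and scanned at 700 nm on a LI-COR Odyssey. Intensity was background-subtracted (parental U2OS) and expressed relative to WT DMSO wells.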

cell-surface Lgr5 expression, inactive:
Cc1ccc(S(=O)(=O)/N=C(\N)Nc2nc3ccccc3o2)cc1 1.13
O=C(NNC(=O)c1ccncc1)Nc1ccccc1 0.777
Cc1ccccc1NC(=S)NC(=O)/C=C/c1ccco1 0.688
O=C(Nc1ccc(F)cc1)c1nc[nH]c1C(=O)O 0.726
O=C(Cc1ccc(Cl)cc1)NNC(=S)NC(=O)c1cccnc1 0.659
COC(=O)c1ccc(NC(=S)NC(=O)c2cccnc2)cc1 0.619
Nc1ccc(NC(=O)c2ccccn2)cc1 0.729
COc1ccccc1NC(=O)Nc1cc(C)ccn1 0.636
COc1ccc(Nc2nc(CC(=O)O)cs2)cc1 0.854
CC1(C)Oc2ccc3ccc(=O)oc3c2/C(=C/NNC(N)=S)C1=O 0.231
COc1ccc(NC(=O)C(=O)NNC(=O)c2cccs2)cc1 0.818
NNC(=O)CSc1ncnc2nc[nH]c12 1.2
O=C(CCCl)Nc1cc(-c2nc3ccccc3o2)ccc1Cl 0.793
NC(Cc1c[nH]c2ccccc12)C(=O)NCc1ccco1 (stereo not given) 0.677
CCC(=O)Nc1ccc(NC(=O)c2oc3ccccc3c2C)cc1 0.694
CC(C)C(=O)NNC(=O)c1c(O)c2ccccc2[nH]c1=O 0.66
O=C(Cc1cccs1)NNC(=S)NC(=O)c1ccco1 0.676
O=C(/C=C/c1ccco1)NC(=S)Nc1ccccc1Cl 0.945
COc1ccc2nc(C)cc(Nc3ccc(NC(C)=O)cc3)c2c1 1.3
O=C(O)CNC(=O)c1ccccc1NC(=O)c1ccco1 0.993
COc1ccc2oc(=O)c(C(=O)Nc3ccccc3C)cc2c1 0.879
COc1ccc2oc(=O)c(C(=O)C[n+]3ccc4ccccc4c3)cc2c1 0.521
O=C(O)c1ccccc1C(=O)NNc1ccccc1[N+](=O)[O-] 0.875
O=C(O)c1cccc2c1NC(c1cccc([N+](=O)[O-])c1)C1CC=CC21 (stereo not given) 0.716
CCn1cc(C(=O)O)c(=O)c2cc(F)c(N3CCN(C)CC3)cc21 0.974
Cc1ccccc1NC(=O)c1ccc([N+](=O)[O-])o1 0.316
NC(=S)NNC(=O)CCn1c2ccccc2c2ccccc21 0.496
Nc1cccc(NC(=O)c2ccccn2)c1 0.826
CNC(=S)NNC(=O)c1cccnc1 0.926
O=C(Nc1ccc(Cl)cc1Cl)c1cc2ccccc2oc1=O 0.899
CC(=O)N/C(N)=N/c1nc(C)c2ccc(C)cc2n1 0.937
COc1ccc(C(=O)/C=C/c2c[nH]c3ccccc23)cc1 0.557
O=C(NCc1ccccn1)/C(=C/c1ccco1)NC(=O)c1ccccc1 0.935
O=c1oc2ccc3ccccc3c2cc1-c1nnc(-c2ccncc2)o1 0.776
CCC(=O)Nc1sc(C(=O)Nc2ccccc2)c(C)c1C(=O)OC 1.16
Nc1c(C(=O)N2CCOCC2)ccc2c1C(=O)c1ccccc1C2=O 0.927
Cc1ccc(-c2nc3ccccc3o2)cc1NC(=O)CCCl 0.741
Cc1ccccc1NC(=O)CSc1nc(N)cc(=O)[nH]1 0.736
O=C(O)/C=C\C(=O)Nc1ccc2cn[nH]c2c1 0.967
COc1ccccc1N1CC(O)=C(c2nc3ccccc3c(=O)[nH]2)C1=N 0.969

Eleven structures already listed, sorted by count of non-hydrogen atoms, smallest number first.
cell-surface Lgr5 expression, inactive:
CNC(=S)NNC(=O)c1cccnc1 0.926
Nc1cccc(NC(=O)c2ccccn2)c1 0.826
O=C(Nc1ccc(F)cc1)c1nc[nH]c1C(=O)O 0.726
O=C(NNC(=O)c1ccncc1)Nc1ccccc1 0.777
O=C(Cc1cccs1)NNC(=S)NC(=O)c1ccco1 0.676
NC(Cc1c[nH]c2ccccc12)C(=O)NCc1ccco1 (stereo not given) 0.677
Cc1ccc(-c2nc3ccccc3o2)cc1NC(=O)CCCl 0.741
COc1ccc2oc(=O)c(C(=O)Nc3ccccc3C)cc2c1 0.879
CCC(=O)Nc1ccc(NC(=O)c2oc3ccccc3c2C)cc1 0.694
Nc1c(C(=O)N2CCOCC2)ccc2c1C(=O)c1ccccc1C2=O 0.927
COc1ccccc1N1CC(O)=C(c2nc3ccccc3c(=O)[nH]2)C1=N 0.969
